Laboratory results reported in publication PMC8228323, “Biodegradation of L-Valine Alkyl Ester Ibuprofenates by Bacterial Cultures” (Materials, 2021).

Legend:
active sludge = conditions: OECD, cited from earlier work; for Maximum level of biodegradation: after 28 days
[1] = test system: active sludge (bacterial cultures); test: Biodegradation in the mineral medium by CO2 production (aerobic, active sludge); conditions: for Phase of degradation: Degradation phase (degradation level) / Phase of degradation: Degradation phase (time) / Phase of degradation: Lag phase (degradation level) / Phase of degradation: Lag phase (time) / Phase of degradation: Plateau phase (degradation level) / Phase of degradation: Plateau phase (time): 28-day (672 h) test; for Time to reach 10% degradation (end of lag phase): adaptation of microorganisms in the lag phase; for Qualitative assessment of aerobic biodegradability (Readily / Poorly biodegradable) / Maximum level (degree) of biodegradation after 28 days: after 28 days; for Maximum level (degree) of biodegradation after 28 days: CO2 released, mean ± SD; for Biodegradation after 3 cycles of tests: mean ± SD (n = 6)

| SMILES | Maximum level of biodegradation (active sludge) [%] | Phase of degradation: Degradation phase (degradation level) ([1]; active sludge) | Phase of degradation: Degradation phase (time) ([1]; active sludge) [h] | Phase of degradation: Lag phase (degradation level) ([1]; active sludge) | Phase of degradation: Lag phase (time) ([1]; active sludge) [h] | Phase of degradation: Plateau phase (degradation level) ([1]; active sludge) | Phase of degradation: Plateau phase (time) ([1]; active sludge) [h] | Time to reach 10% degradation (end of lag phase) [1] [h] | Qualitative assessment of aerobic biodegradability (Readily / Poorly biodegradable) [1] | Maximum level (degree) of biodegradation after 28 days [1] [%] | Biodegradation after 3 cycles of tests ([1]; time 0 days) [%] | Biodegradation after 3 cycles of tests ([1]; time 1 days) [%] | Biodegradation after 3 cycles of tests ([1]; time 2 days) [%] | Biodegradation after 3 cycles of tests ([1]; time 6 days) [%] | Biodegradation after 3 cycles of tests ([1]; time 7 days) [%] | Biodegradation after 3 cycles of tests ([1]; time 9 days) [%] | Biodegradation after 3 cycles of tests ([1]; time 13 days) [%] | Biodegradation after 3 cycles of tests ([1]; time 14 days) [%] | Biodegradation after 3 cycles of tests ([1]; time 16 days) [%] | Biodegradation after 3 cycles of tests ([1]; time 17 days) [%] | other results |
| --- | --- | --- | --- | --- | --- | --- | --- | --- | --- | --- | --- | --- | --- | --- | --- | --- | --- | --- | --- | --- | --- |
| CC(C)Cc1ccc(C(C)C(=O)O)cc1 (racemic) [(R,S)-ibuprofen] | – | – | – | – | – | – | – | – | – | – | – | – | – | – | – | – | – | – | – | – | Start of degradation (active sludge): started only after five days of incubation |
| CC(C)Cc1ccc([C@@H](C)C(=O)O)cc1 [(R)-ibuprofen] | 68 | – | – | – | – | – | – | – | – | – | – | – | – | – | – | – | – | – | – | – | – |
| CC(C)Cc1ccc([C@H](C)C(=O)O)cc1 [(S)-ibuprofen] | 50 | – | – | – | – | – | – | – | – | – | – | – | – | – | – | – | – | – | – | – | – |
| CCCCCCCCCCCCOS(=O)(=O)[O-].[Na+] [SDS, sodium dodecyl sulfate, reference compound] | – | 9–78% | 15 to 537 | 0–9% | 0 to 15 | 78–87% | 537 to 672 | 15 | Readily | 86.8 | 1 ± 1.50 | 12 ± 8.91 | 28 ± 10.24 | 49 ± 2.87 | 52 ± 5.06 | 56 ± 3.70 | 62 ± 3.11 | 67 ± 2.89 | 71 ± 2.22 | 77 ± 4.19 | Classification of biodegradability (in words) ([1]; active sludge, 28 days): easily biodegradable; Biodegradation after 3 cycles of tests ([1]; time 22 days): 80 ± 6.29%; Biodegradation after 3 cycles of tests ([1]; time 23 days): 80 ± 6.50%; Biodegradation after 3 cycles of tests ([1]; time 27 days): 84 ± 8.85%; Biodegradation after 3 cycles of tests ([1]; time 28 days): 87 ± 8.54% |
| CC(C)Cc1ccc(C(C)C(=O)O)cc1.CCCCCCCCOC(=O)[C@@H](N)C(C)C [[ValOOct][IBU]] | – | 4–35% | 37 to 524 | 0–4% | 0 to 37 | 35–39% | 524 to 672 | 37 | Poorly | 39.0 | 0 ± 3.60 | 3 ± 1.92 | 5 ± 1.77 | 13 ± 1.23 | 14 ± 1.27 | 16 ± 5.43 | 26 ± 3.83 | 31 ± 2.70 | 35 ± 3.31 | 36 ± 5.28 | Biodegradation after 3 cycles of tests ([1]; time 22 days): 37 ± 5.07%; Biodegradation after 3 cycles of tests ([1]; time 23 days): 37 ± 6.74%; Biodegradation after 3 cycles of tests ([1]; time 27 days): 37 ± 6.65%; Biodegradation after 3 cycles of tests ([1]; time 28 days): 39 ± 5.43% |
